PubChem BioAssay AID1259308 | NCATS – 2017
Here is an unselected part of about 59,000 reagents. In the full data, about 1,510 (2.6%) got an active call. 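Calls use total luciferase alone and ignore viability, so some active siRNAs may act by altering cell number.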 Reagents against one gene are numbered here. Further read-outs or replicates are left out here.

- Test: 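Knock-downs that increase output of a recombinant reporter protein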 (primary screen)
- Cells: human HEK293 embryonic kidney cells stably expressing firefly luciferase (HEK-CMV-Luc2-Hygro)
- Knock-down reagent: single siRNA against human genes, 0.8 pmol siRNA per well
- Duration: 72 h
- Measured: 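Luciferase light (ONE-Glo) measured on one replicate plate set and viability (CellTiter-Glo) on the other, scaled to a negative control siRNA, with robust z-scores and luciferase per cell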
- Direction: total luciferase, z-score: higher = more reporter protein produced
- Call rule: 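An siRNA counts as active if its total luciferase robust z-score exceeds 3; genes with two or more such siRNAs out of three were retested with fresh siRNAs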
- Meaning of the calls: active = raised luciferase; inactive = no rise

The opening 3 records, to show the layout:
gene | reagent | total luciferase, z-score | Call
RIIAD1 | 1 | -0.489 | inactive
RIIAD1 | 2 | 0.974 | inactive
RIIAD1 | 3 | -0.505 | inactive

The list itself, repeating the preview:
gene | reagent | total luciferase, z-score | Call
RIIAD1 | 1 | -0.489 | inactive
RIIAD1 | 2 | 0.974 | inactive
RIIAD1 | 3 | -0.505 | inactive
MANEA | 1 | 1.72 | inactive
MANEA | 2 | 1.62 | inactive
MANEA | 3 | -0.969 | inactive
SULT1C5P | 1 | -0.573 | inactive
SULT1C5P | 2 | 1.63 | inactive
SULT1C5P | 3 | -1.03 | inactive
ACOT7 | 1 | -2.18 | inactive
ACOT7 | 2 | 1.08 | inactive
ACOT7 | 3 | -0.515 | inactive
EXOC6B | 1 | 0.288 | inactive
EXOC6B | 2 | -0.272 | inactive
EXOC6B | 3 | 0.564 | inactive
TREML2 | 1 | 2.21 | inactive
TREML2 | 2 | -0.215 | inactive
TREML2 | 3 | 0.696 | inactive
DENR | 1 | 0.344 | inactive
DENR | 2 | 0.558 | inactive
DENR | 3 | 1.16 | inactive
SACK1F | 1 | 1.6 | inactive
SACK1F | 2 | 0.838 | inactive
SACK1F | 3 | 0.654 | inactive
